The supplement of paper PMC12764529
± gives the half width of the 95% confidence interval. The two proteases of the assay disagree for many of these sequences.

Assays:
[1] = folding stability dG unfold from chymotrypsin proteolysis; higher = more stable
Description: (§1)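 Folding stability of de novo designed mini-proteins (<80 aa, no Cys; designed by TrROS, TrMRF, ProteinMPNN and the joint model) was measured by cDNA display proteolysis with trypsin and chymotrypsin. Each protease was used at 11 concentrations in a threefold dilution series plus a no-protease condition. K50 was inferred by Bayesian fitting of sequencing counts, and dG unfold was derived against a sequence-predicted unfolded-state K50 (Tsuboyama et al. method). Sequences shown include variable-length N-terminal GS-type padding (SAGGSAGG...) inside a display construct carrying a PA tag. Rows were kept only if the AF2 dimer inter-PAE was >15, to exclude likely homo-oligomers.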

[2] = folding stability dG unfold (combined trypsin and chymotrypsin); higher = more stable
Description: as §1

| Sequence | folding stability dG unfold [1] | folding stability dG unfold [2] |
| --- | --- | --- |
| SAGGKVVVVPFPGPVTPETVAALAAKFIEEGLYDVPLVVVSEVEGRRPDGRPGRRRFGFVYVAKAPKSAGGS [r16_44_TrMRF] | 1.98 ± 0.13 kcal/mol | 1.59 ± 0.1 kcal/mol |
| SAGGSAGGSAGMSRISVEPGPGRVTVTTEVETEEIVPGTGTPKLRRSTTVTVLPAGELAPSAGGSAGGSAGG [r17_51_JUSTAS] | 1.12 ± 0.045 kcal/mol | 0.646 ± 0.059 kcal/mol |
| SAGGSAVKPGERVFFPIVVPVDPSTTPEALRRAVEALLPPGARVRVFEDPERRVALVLVEVDVPDESAGGSA [r15_749_TrMRF] | 2.54 ± 0.032 kcal/mol | 2.04 ± 0.07 kcal/mol |
| SALPLPSSAKVELEWELVGVDPGSKGAKVYYRRTLKVTFPTGSLTVTYLVEYDPETGTFSWSITSVSPESAG [r14_293_TrMRF] | 5.65 ± 0.095 kcal/mol | 5.38 ± 0.21 kcal/mol |
| SAGGMTMTLTHPDSDTVFTLPPEIQKAVDSGDEEAIAALPPEIRAALAAVAERTVTPLPSAVATTTAGSAGG [r13_233_JUSTAS] | 1.44 ± 0.14 kcal/mol | 0.883 ± 0.16 kcal/mol |
| SAGGSAGGSAGMVVETEVLETTPPGRTVRTRTTTREKTPDNAPVTTESESVTEVPSPPLESAGGSAGGSAGG [r11_689_JUSTAS] | 0.615 ± 0.026 kcal/mol | 0.273 ± 0.081 kcal/mol |
| SAGGMNSMRLTVEFPSPEQREEKLRQIVHKHGFTIKPKEVEPNPNGRMTHTIEINMPPKVRDAFKDLSAGGS [r8_357_TrROS] | -0.152 ± 0.19 kcal/mol | -0.659 ± 0.14 kcal/mol |
| SAGGSAGGSAGGPGAFYIPETGAVAVVRTLPDGSKVVVLTFPDGPVQTALLDPDGHLLPSAGGSAGGSAGGS [r10_299_TrMRF] | 2.315 ± 0.021 kcal/mol | 1.85 ± 0.049 kcal/mol |
| SAGKLKPGDPVKIKIEIERDPGNGMVRVTYKIEFKDGMYVTMIIPPNGPIHVEIFNPDDGKEREETIPLSAG [r5_55_TrROS] | 2.67 ± 0.096 kcal/mol | 2.46 ± 0.26 kcal/mol |
| SAGGSAGGSASSMVTVTVSVSPDEGDEEVAKEIAKELGRPDAKVTKITYDPATGTLTITLVDSAGGSAGGSA [r18_481_JUSTAS] | 1.53 ± 0.062 kcal/mol | 1.58 ± 0.11 kcal/mol |
| SAGGSDKEEKEKEIDIRIVQVPWDDARELAEESDDPVIFMLPDGHIHIFKGDGKVEPFPIPDPEEFSAGGSA [r2_34_TrROS] | 0.199 ± 0.15 kcal/mol | 0.0224 ± 0.12 kcal/mol |
| SAGMPPVVVVEVPFRVTHHADPGTVTVEARFLLEDEEFTATFTLPAPPALAALPPGATVDVPALAVLLDSAG [r5_714_TrMRF] | 3.19 ± 0.051 kcal/mol | 2.63 ± 0.12 kcal/mol |
| SAGGSAPVIVKEASLEEIKELKKKGVKKIILVEKNPEIAEKIKKEFEKEDDIPIETVSEEEAKKLKSAGGSA [r15_243_TrMRF] | -0.294 ± 0.13 kcal/mol | -0.718 ± 0.28 kcal/mol |
| SAGGSAATTEYEETVVDPNNPEPVKVKRTVTETVPPNPVVRTEETVTYPDGTVTRPTSVSTTPTAVSAGGSA [r15_828_JUSTAS] | 1.24 ± 0.084 kcal/mol | 0.724 ± 0.19 kcal/mol |
| SAGGSAGGMTAADLAAALAGPVPPLRVVEVAIPVHPDETLEEALELARRLGEELGADVVILHVASAGGSAGG [r6_516_TrMRF] | 1.51 ± 0.068 kcal/mol | 0.774 ± 0.12 kcal/mol |
| SAGGSAGGSAGGKKIIKVNLRIYDPVNPKVTVLPIEAPFDEIIKIAKEIAAPDQVVEISSAGGSAGGSAGGS [r10_397_TrMRF] | -0.506 ± 0.097 kcal/mol | -0.654 ± 0.16 kcal/mol |
| SAGGSAGGSAAATIELLNADGEPVTATVERRPDGSVNVTVTFPGGAKAEFTFAEGEEVRLPGSAGGSAGGSA [r18_115_TrMRF] | 1.936 ± 0.012 kcal/mol | 1.65 ± 0.035 kcal/mol |
| SAGGSAGGSAGMITIERIPGSGKLVITITDPGSGKVLTIPFDNADPKEALAKAKELLKKLSAGGSAGGSAGG [r17_386_JUSTAS] | 3.19 ± 0.048 kcal/mol | 3.25 ± 0.075 kcal/mol |
| SAGGSVLVTLTNPADGTPVTLPTPAEEAEAILASGDTAALEARHPGRPVAAVTVDPVSPRPPVPPGLASAGG [r13_629_JUSTAS] | 0.223 ± 0.095 kcal/mol | -0.651 ± 0.38 kcal/mol |
| SAGGSAGGSAGGSRRLLTEKDPATGTTTTTELTFENGVPTTTSTTTTVTPLPPLTPNLGLSAGGSAGGSAGG [r7_276_JUSTAS] | 1.08 ± 0.031 kcal/mol | 0.685 ± 0.19 kcal/mol |
| SAGGSAGGSAKTININTNGPAAPALIEAAKEKGDSVNVTVTPVYGDKAYPITGTFPVLPDESAGGSAGGSAG [r3_149_TrMRF] | 1.61 ± 0.11 kcal/mol | 1.13 ± 0.14 kcal/mol |
| SAGGSAGGSAGGAADGPEKVVTVPVRFTFTLPDGDEVEVRGVATFYEDGPITFELKEVYPSAGGSAGGSAGG [r7_694_TrMRF] | 3.6 ± 0.046 kcal/mol | 3.15 ± 0.16 kcal/mol |
| SAGGSAGGSAGGGPSSSTSVSTSTTPGEGERIVTTTTFYPSNGTTTTTTTTVDPATGAGGSAGGSAGGSAGG [r7_231_JUSTAS] | 1 ± 0.036 kcal/mol | 0.494 ± 0.11 kcal/mol |
| SAGGSAGGSAGGSENGVQPPVRPRVTVRFPDDGKWWEFTTLEELEELIKDGNFEIDEITSAGGSAGGSAGGS [r10_520_TrROS] | 1.17 ± 0.029 kcal/mol | 0.703 ± 0.04 kcal/mol |

| Sequence | folding stability dG unfold [1] | folding stability dG unfold [2] |
| --- | --- | --- |
| SIRGMPPEVVLYIIRFFAREQKNKGMPPDDRPIEINIMMPNPEARKDAKKEIKEENPGIKDVKIEVMPPNSA [r9_341_TrROS] | 3.1 ± 0.17 kcal/mol | 2.61 ± 0.56 kcal/mol |
| SAGGSSNKYLVTVTVSTPGKEITLNFEVESEEEAEELVREAIKEKYPENLDEITIEITITPTSDPESAGGSA [r2_111_JUSTAS] | 2.94 ± 0.17 kcal/mol | 3.44 ± 0.24 kcal/mol |
| SAGGSAGGSAGGPMKVFSYTIKPGGEVLNPIPLPPGSVVTTSPDPATGTQNVTIEVPELLSAGGSAGGSAGG [r11_32_JUSTAS] | 2.41 ± 0.041 kcal/mol | 1.14 ± 0.18 kcal/mol |
| SMIPPGAELELEFEIEGEGDEPLRIRLRLRFDPGPDGKARVRLELELEGPDGPVLRLPFEFELDIPPDALSA [r9_86_TrMRF] | 3.85 ± 0.042 kcal/mol | 3.5 ± 0.059 kcal/mol |
| SAGGSAEAEAEVEFDPETGRLRVRVRFPDSDETVEREIEVPPVPPIPPEDVERARRAAAEGRESDLSAGGSA [r15_631_TrMRF] | 1.998 ± 0.018 kcal/mol | 1.5 ± 0.051 kcal/mol |
| SYLELTFTLPATGAVVRLRFDPTTGRAEVVARPPTGPAVGGSWEVRGDRLRVVLYDPSGRPLATLELPLASA [r9_665_TrMRF] | 3.81 ± 0.051 kcal/mol | 3.45 ± 0.097 kcal/mol |
| SAGGMLVLDLGDDVFVAEIRTERRVERDPEHPDRFRVETRPRIRVRPVRRPDVLPLPPVGLDDPRFLSAGGS [r16_395_TrMRF] | 1.13 ± 0.16 kcal/mol | 0.538 ± 0.18 kcal/mol |
| SAGGSAGGSAGSMTVTVDVTISPLPESDEVLVTITTYVNGVPVTTPVRVDPETAAALIAASAGGSAGGSAGG [r11_700_JUSTAS] | 1.95 ± 0.083 kcal/mol | 1.44 ± 0.14 kcal/mol |
| SKPIPVKITIETKTNPNGEPITTITIDKGDKTYSLPLGNAKILEIDPEKQYIIIYNPETGSILILKPSDLSA [r9_1186_TrMRF] | 3.14 ± 0.06 kcal/mol | 2.95 ± 0.058 kcal/mol |
| SAGGSAGGSAGGPLAEIEEAGFKVLAVPAPTPADGQPWVAVLVEHGSGYRVYLVPAEEASAGGSAGGSAGGS [r10_35_TrMRF] | 1.57 ± 0.039 kcal/mol | 0.969 ± 0.065 kcal/mol |
| SAGGSAGGSAMNVTTETRTDPVTGNTTTTTTYTDTGEVVTTTTTTPPETTTTTTTTTSLTKSAGGSAGGSAG [r3_126_JUSTAS] | 0.982 ± 0.07 kcal/mol | 0.524 ± 0.2 kcal/mol |
| SAGGSAGGSAGGSGMGVKATFEINFWALNPDGNLMPMNITVEVEVPVPPPPPPKDPDGKSAGGSAGGSAGGS [r4_325_TrROS] | 2.91 ± 0.051 kcal/mol | 2.43 ± 0.17 kcal/mol |
| SAGGSAGGSAGKLKVEIEERNGKLVLKVKLELEPEPEPVEVEKKVEVKTETKMSLEELKKSAGGSAGGSAGG [r17_51_TrROS_Hall] | 0.952 ± 0.058 kcal/mol | 0.471 ± 0.096 kcal/mol |
| SAGGNWLIKIEVENLPPGAHIMFPNGRSIPPGKEFTIPLDAPFDNIMVHGPDGKIIDVERVPLDKPDDSAGG [r13_441_TrROS] | 1.26 ± 0.089 kcal/mol | 0.74 ± 0.19 kcal/mol |
| SAGGSAGGMREKIEKAVATGEGGPLVVPVPSPEEEEEVRRIKEEFPEVEVKAVPPEEMPPDYARSAGGSAGG [r6_87_JUSTAS] | 1.09 ± 0.054 kcal/mol | 0.488 ± 0.18 kcal/mol |
| SAGGEIKIEVEKTEDTIKVKIVNKKTGKVEEREFKPGEKLEELPEGAEPKKIEIVNKNGEKIEIELPSAGGS [r8_487_TrROS_Hall] | 1.11 ± 0.065 kcal/mol | 0.561 ± 0.094 kcal/mol |
| SAGGKKIEIKEGDTVKLKNATITLNGKTFKIKDAEAKVVKVDKKKKKVIIEITLKNGKKETFVFDIKSAGGS [r8_215_TrROS_Hall] | 3.331 ± 0.026 kcal/mol | 3.15 ± 0.16 kcal/mol |
| SAGGSAGGSAGPSVSVSPTSLTVTFPLGDATLTITFDPLSGGVSVSVSPLPVAPLAPDEASAGGSAGGSAGG [r11_788_TrMRF] | 1.67 ± 0.073 kcal/mol | 1.25 ± 0.16 kcal/mol |
| SAGGSAGGSAGELTLELRVDTPEEAVRLAARLRELGYDVEVEVAPDPETGTYTVRLRVRLPASAGGSAGGSA [r18_455_TrMRF] | 4.3 ± 0.051 kcal/mol | 3.93 ± 0.094 kcal/mol |
| SAGGSAGGSAKPPVIKVRIRVRYPENGEWKEIEIEVPEGATEEEIAKAIKEKFPEIEKIEIESAGGSAGGSA [r18_195_TrROS_Hall] | 2.52 ± 0.25 kcal/mol | > 6 kcal/mol |
| SAGGMSSTETRVLETEPGASPDGSSLVKSEVTFTEGDSPVYTELYETEVTYLPDGTVETKTSRTVVPSAGGS [r8_170_JUSTAS] | 1.06 ± 0.043 kcal/mol | 0.553 ± 0.061 kcal/mol |
| SAGGSAGGSAGGMTVLTLTRRNYIDPARPVTITITLPLPLPPLPFPEALTTPSGIFGPLGSAGGSAGGSAGG [r11_419_JUSTAS] | 1.21 ± 0.18 kcal/mol | 0.42 ± 0.16 kcal/mol |
| SAGGSAGGKVVLDPARREVLLQLPDGRWVRGKLVRAEAIPPTGRAVLEVVFELDGVEVPATIEFSAGGSAGG [r6_962_TrMRF] | 3.065 ± 0.017 kcal/mol | 2.67 ± 0.027 kcal/mol |

As entered above.
SAGGSAGGSAKPPVIKVRIRVRYPENGEWKEIEIEVPEGATEEEIAKAIKEKFPEIEKIEIESAGGSAGGSA [r18_195_TrROS_Hall] – folding stability dG unfold [1]: 2.52 ± 0.25 kcal/mol
SAGGSAEAEAEVEFDPETGRLRVRVRFPDSDETVEREIEVPPVPPIPPEDVERARRAAAEGRESDLSAGGSA [r15_631_TrMRF] – folding stability dG unfold [2]: 1.5 ± 0.051 kcal/mol
